PubChem BioAssay AID1259308 – NCATS | 2017
The deposit covers about 59,000 reagents; shown is an unselected part. Of all reagents, about 1,510 (2.6%) got an active call. 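Calls use total luciferase alone and ignore viability, so some active siRNAs may act by altering cell number.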 Unmarked entries are inactive. Reagents against one gene are numbered here.

Test: 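Genes whose loss raises luciferase production in HEK293 cells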 (primary screen)
Cell system: human HEK293 embryonic kidney cells stably expressing firefly luciferase (HEK-CMV-Luc2-Hygro)
Reagents: single siRNA against human genes, 0.8 pmol siRNA per well
Duration: 72 h
Measurement: 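Reporter luminescence and viable-cell signal on separate replicate plates, given as percent of non-targeting control and median/MAD z-scores, plus per-cell luciferase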
Scale: total luciferase, z-score and total luciferase, % of control: higher = more reporter protein produced; luciferase per cell, z-score: higher = more reporter output per viable cell; viable cells, % of control: higher = more viable cells
Call rule: 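An siRNA counts as active if its total luciferase robust z-score exceeds 3; genes with two or more such siRNAs out of three were retested with fresh siRNAs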
Meaning of the calls: active = raised luciferase; inactive = no rise

target gene	reagent	total luciferase, z-score	total luciferase, % of control	luciferase per cell, z-score	viable cells, % of control
CAPRIN2	1	-0.223	77.5	-0.698	104
CAPRIN2	2	0.246	86.8	-0.142	101
CAPRIN2	3	1.17	105	0.842	94.1
ARFRP1	1	0.293	87.7	-0.381	108
ARFRP1	2	0.446	90.8	1.1	76
ARFRP1	3	-1.32	55.7	-0.823	77.3
GABRB3	1	1.05	103	0.211	109
GABRB3	2	-0.684	68.3	-1.58	116
GABRB3	3	-1.32	55.5	-0.295	67.1
VBP1	1	-0.169	78.5	-0.0937	89.9
VBP1	2	-0.784	66.3	-1.08	98.4
VBP1	3	-0.407	73.8	-0.199	86.9
RFK	1	0.453	90.9	0.632	86
RFK	2	-0.567	70.6	0.014	78.6
RFK	3	0.341	88.7	0.532	86.1
CDK9	1	-0.0535	80.8	1.41	62.3
CDK9	2	0.279	87.4	0.132	94.4
CDK9	3	-0.378	74.4	-0.903	105
FOXS1	1	1.34	109	1.61	79.5
FOXS1	2	1.45	111	1.52	82.9
FOXS1	3	-0.0626	80.6	-0.685	108

Entries listed so far whose gene name starts with G or g (3):
target gene	reagent	total luciferase, z-score	total luciferase, % of control	luciferase per cell, z-score	viable cells, % of control
GABRB3	1	1.05	103	0.211	109
GABRB3	2	-0.684	68.3	-1.58	116
GABRB3	3	-1.32	55.5	-0.295	67.1

Continued.
target gene	reagent	total luciferase, z-score	total luciferase, % of control	luciferase per cell, z-score	viable cells, % of control
POP1	1	0.309	88	-0.625	116
POP1	2	0.109	84.1	-0.00538	94.1
POP1	3	-1.81	45.8	-0.833	63.7
OR51G2	1	0.451	90.9	0.0297	101
OR51G2	2	0.326	88.4	-0.237	105
OR51G2	3	0.536	92.6	-0.454	117
FOXD2	1	0.603	93.9	0.57	90.3
FOXD2	2	0.817	98.1	1.37	76.5
FOXD2	3	-1.25	57.1	-0.842	79.7
SH3GLB1	1	2.73	136	1.1	114
SH3GLB1	2	-1.05	61.1	-0.924	87
SH3GLB1	3	1.75	117	1.19	95.4
CALCOCO2	1	0.169	85.2	1.23	68.8
CALCOCO2	2	1.58	113	2.73	61.8
CALCOCO2	3	1.86	119	0.646	112
IFT56	1	0.913	100	0.292	104
IFT56	2	0.848	98.8	-0.202	116
IFT56	3	-0.484	72.3	-0.612	94.9
